Test results taken from article PMC11117661, “Development of a Novel In Silico Classification Model to Assess Reactive Metabolite Formation in the Cysteine Trapping Assay and Investigation of Important Substructures” (Biomolecules, 2024).

Assay: cysteine trapping assay ([35S]cysteine, HPLC with radiomatic detector) for reactive metabolites
Details: human liver microsome 2 mg/mL, L-[35S]-Cysteine, NADPH, 37 °C, 2 h

CC(C)c1c(C(=O)Nc2ccccc2)c(-c2ccccc2)c(-c2ccc(F)cc2)n1CC[C@@H](O)C[C@@H](O)CC(=O)O [Atorvastatin]
RI integrated area: 4464.4 count
